# Measurements taken from the supplement of paper PMC12067093, “Discovery and optimisation of a covalent ligand for TRIM25 and its application to targeted protein ubiquitination” (Chemical Science, 2025).
# Some of the results follow.
# Compound: Cc1cc(ccc1-c1ccccc1)C(=O)N1CCCN(CC1)C(=O)CCl [compound 10]
# Assay: probe-labelled cysteine peptide fold change vs DMSO (competition) (log2 fold change); higher = less target engagement (more negative = stronger competition)
# Conditions: THP-1, incubation time: 4 h
# 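Further: competitive profiling in live THP-1 cells: cysteine peptides tagged with an iodoacetamide desthiobiotin (IA-DTB) probe, intensity after compound treatment relative to DMSO-treated cells.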
Target,probe-labelled cysteine peptide fold change (10 µM),probe-labelled cysteine peptide fold change (50 µM)
SETX_Q7Z333_1398_AGSHTAQNSDIFVPESDRSDYNCTGGTEVLANSNR (UniProt Q7Z333),-0.398,-0.305
SETX_Q7Z333_1368_LSDCESTDVKR (UniProt Q7Z333),-0.274,-0.786
SFMBT2_Q5VUG0_426_NPGELCVASVVSVK (UniProt Q5VUG0),0.135,0.3
SGO1_Q5FBB7_478_CTASVNYK (UniProt Q5FBB7),0.264,0.00171
SGO2_Q562F6_798_HGHDMQPACQNDSK (UniProt Q562F6),-0.0428,-0.0703
SIK3_Q9Y2K2_121_MLCHPHIIR (UniProt Q9Y2K2),-0.0228,-0.138
SERINC3_Q13530_72_KIPGFCEGGFK (UniProt Q13530),-0.0848,0.135
SKIV2L_Q15477_579_GRCDEQASGLTSLDLTTSSEK (UniProt Q15477),0.154,-0.112
SKIV2L_Q15477_877_VFTTLVLCDKPLSQDPQDR (UniProt Q15477),0.178,0.0839
SKP1_P63208_160_ENQWCEEK (UniProt P63208),-0.168,-0.0981
SF3B6_Q9Y3B4_74_NACDHLSGFNVCNR (UniProt Q9Y3B4),0.0149,-0.15
SH3GLB1_Q9Y371_304_ECSGSR (UniProt Q9Y371),-0.299,0.164
SETX_Q7Z333_1416_CMPSEPETIK (UniProt Q7Z333),-0.616,-0.311
SHC1_P29353_212_KPCSRPLSSILGR (UniProt P29353),-0.0754,-0.391
SKP1_P63208_62_KVIQWCTHHK (UniProt P63208),0.13,0.23
SERPINB8_P50452_348_FCADHPFLFFIR (UniProt P50452),-0.213,0.265
SLC22A15_Q8IZD6_438_NVGLGTCSMFSR (UniProt Q8IZD6),0.0942,-0.0742
SEPT5_Q99719_300_DVTCDVHYENYR (UniProt Q99719),-0.0149,0.168
SF3B1_O75533_1250_MLQYCLQGLFHPAR (UniProt O75533),0.00594,0.056
SETD2_Q9BYW2_1125_ACPQTDK (UniProt Q9BYW2),-0.235,-0.561
SF3B1_O75533_1244_VAIGPCR (UniProt O75533),-0.136,0.406

# As entered above.
# For probe-labelled cysteine peptide fold change (50 µM), SERPINB8_P50452_348_FCADHPFLFFIR (UniProt P50452) is entered as 0.265
# For probe-labelled cysteine peptide fold change (10 µM), SF3B1_O75533_1250_MLQYCLQGLFHPAR (UniProt O75533) is entered as 0.00594
# For probe-labelled cysteine peptide fold change (50 µM), SETX_Q7Z333_1416_CMPSEPETIK (UniProt Q7Z333) is entered as -0.311

# Later entries.

Target,probe-labelled cysteine peptide fold change (10 µM),probe-labelled cysteine peptide fold change (50 µM)
SFMBT2_Q5VUG0_560_CVLVLK (UniProt Q5VUG0),0.0305,0.211
SF3B6_Q9Y3B4_74+83_NACDHLSGFNVCNR (UniProt Q9Y3B4),0.117,0.15
SF3B3_Q15393_1054_FGNICVVR (UniProt Q15393),0.206,0.192
SLC25A19_Q9HC21_222_KNENLQNLLCGSGAGVISK (UniProt Q9HC21),-0.299,0.0602
SETD2_Q9BYW2_736_DLDDTCMLHK (UniProt Q9BYW2),-0.304,-0.445
SFMBT1_Q9UHJ3_365_QCGAEAAPQR (UniProt Q9UHJ3),-0.105,-0.199
SIN3A_Q96ST3_1063_KAEQLMSDENCFK (UniProt Q96ST3),0.12,-0.177
SIRT3_Q9NTG7_256+259_LVEAHGTFASATCTVCQRPFPGEDIR (UniProt Q9NTG7),0.0105,-0.301
SHC1_P29353_574_FESVSHLISYHMDNHLPIISAGSELCLQQPVER (UniProt P29353),0.226,0.476
SLC12A2_P55011_630_IFQALCK (UniProt P55011),0.0669,0.000601
SLC1A5_Q15758_39_GLAAAEPTANGGLALASIEDQGAAAGGYCGSR (UniProt Q15758),-0.33,0.0468
SLC27A4_Q6P1M0_560_AGMAAVASPTGNCDLER (UniProt Q6P1M0),-0.03,-0.0763
SETDB1_Q15047_582_LFYLPHVCSYTCLSR (UniProt Q15047),-0.0872,-0.112
SLC25A5_P05141_257_GTDIMYTGTLDCWR (UniProt P05141),-0.0133,0.173
SERPINB8_P50452_98_TCDFLPDFK (UniProt P50452),-0.112,-0.0335
SEPT6_Q14141_14_QVGEGCR (UniProt Q14141),-0.187,-0.123
SETD2_Q9BYW2_900_CGENTSPVLDAVLK (UniProt Q9BYW2),0.00684,-0.355
SHMT2_P34897_91_AALEALGSCLNNK (UniProt P34897),-0.0984,0.0251
SF3B3_Q15393_289_GMIFVCSATHK (UniProt Q15393),0.254,0.341
SHMT2_P34897_119_RYYGGAEVVDEIELLCQR (UniProt P34897),-0.00529,0.256
SLC27A3_Q5K4L6_411_FSAGQFWEDCQQHR (UniProt Q5K4L6),0.26,0.589

Target,probe-labelled cysteine peptide fold change (10 µM),probe-labelled cysteine peptide fold change (50 µM)
SLAIN2_Q9P270_165_QVLDYPSPDVECAK (UniProt Q9P270),0.0188,-0.17
SHMT1_P34896_384_VLEACSIACNK (UniProt P34896),-0.147,-0.261
SHCBP1_Q8NEM2_591_VDLEELIECATGK (UniProt Q8NEM2),-0.296,0.111
SIPA1_Q96FS4_632_VVFNCACR (UniProt Q96FS4),0.0656,-0.131
SGTA_O43765_153_AICIDPAYSK (UniProt O43765),0.119,-0.316
SLC25A20_O43772_136_CLLQIQASSGESK (UniProt O43772),0.0784,-0.0678
SLC27A2_O14975_414_YDVEKDEPVRDENGYCVR (UniProt O14975),0.0781,0.0963
SLC25A10_Q9UBX3_22+23_WYFGGLASCGAACCTHPLDLLK (UniProt Q9UBX3),0.103,0.133
SFMBT2_Q5VUG0_511_KIPHDLCLFPHLDTTGTVNGK (UniProt Q5VUG0),-0.167,-0.164
SERPINB6_P35237_350_FCADHPFLFFIQHSK (UniProt P35237),-0.116,-0.0597
SIN3B_O75182_1138_TLCETVHVHGLPVTR (UniProt O75182),-0.165,0.0678
SFPQ_P23246_431_CSEGVFLLTTTPRPVIVEPLEQLDDEDGLPEK (UniProt P23246),0.102,0.462
SHMT1_P34896_248_IADENGAYLMADMAHISGLVAAGVVPSPFEHCHVVTTTTHK (UniProt P34896),-0.227,-0.34
SIRPA_P78324_228_EDVHSQVICEVAHVTLQGDPLR (UniProt P78324),-0.225,-0.114
SEPT9_Q9UHD8_531_TKWGTIEVENTTHCEFAYLR (UniProt Q9UHD8),-0.0155,-0.371
SIRT2_Q8IXJ6_221_CEDCQSLVKPDIVFFGESLPAR (UniProt Q8IXJ6),0.04,0.0413
SETDB1_Q15047_385_RCEWIYR (UniProt Q15047),0.221,0.291
SLC25A1_P53007_127_GLLCGLGAGVAEAVVVVCPMETIK (UniProt P53007),0.0716,0.146
SETX_Q7Z333_1398_AGSHTAQNSDIFVPESDRSDYNCTGGTEVLANSNRK (UniProt Q7Z333),-0.406,-0.192
SETD2_Q9BYW2_1086_NSTLPMEETSPCSSR (UniProt Q9BYW2),0.21,0.505
SKAP2_O75563_186_DCCFEISAPDK (UniProt O75563),0.0418,0.334

Target,probe-labelled cysteine peptide fold change (10 µM),probe-labelled cysteine peptide fold change (50 µM)
SH3BP5L_Q7L8J4_178_NRLDPTWQEMLNHATCK (UniProt Q7L8J4),0.0677,-0.0342
SERPINB8_P50452_364+368_TNCILFCGR (UniProt P50452),-0.229,-0.331
SLC27A3_Q5K4L6_256_RGPLLHCLR (UniProt Q5K4L6),0.0393,-0.169
SIPA1_Q96FS4_467_AHTPCTPHTTYR (UniProt Q96FS4),0.0796,0.0157
SLC27A3_Q5K4L6_256_GPLLHCLR (UniProt Q5K4L6),0.0831,-0.0208
SF3B1_O75533_796_QCCGTDGVEANYIK (UniProt O75533),-0.0565,0.0169
SLC25A36_Q96CQ1_67_VVSPGPLHCLK (UniProt Q96CQ1),0.149,-0.182
SEPT7_Q16181_204_ADTLTPEECQQFK (UniProt Q16181),0.0143,0.303
SLC25A3_Q00325-2_75_YYALCGFGGVLSCGLTHTAVVPLDLVK (UniProt Q00325),0.0167,-0.282
SKA3_Q8IX90_215_MDDFECVTPK (UniProt Q8IX90),-0.222,0.00308
SIL1_Q9H173_379_QVHLLPGLWEQGWCEITAHLLALPEHDAR (UniProt Q9H173),-0.0637,0.625
SETD7_Q8WTS6_303_ANHSFTPNCIYDMFVHPR (UniProt Q8WTS6),-0.214,0.0544
SERPINB6_P35237_36_NVFFSPMSMSCALAMVYMGAK (UniProt P35237),-0.224,-0.399
SHPRH_Q149N8_1435_TSGGVNPEPCPICAR (UniProt Q149N8),0.0157,0.123
SIPA1_Q96FS4_307_LLEHVAPQLSPSCLR (UniProt Q96FS4),-0.36,-0.251
SIPA1_Q96FS4_811_QLLHLCLQDGGSPPGPGDLAEER (UniProt Q96FS4),0.15,-0.172
SESN1_Q9Y6P5_286_QLQECRDEEEASQEEMASR (UniProt Q9Y6P5),0.0129,0.0662
SF3B3_Q15393_289_NDLDDPERGMIFVCSATHK (UniProt Q15393),0.111,0.0605
SHOC2_Q9UQ13_260_EIGNCTQITNLDLQHNELLDLPDTIGNLSSLSR (UniProt Q9UQ13),-0.0286,0.259
SEPT7_Q16181_160_VQCCLYFIAPSGHGLK (UniProt Q16181),0.0433,-0.0577
